Values from PubChem BioAssay AID743121 (NCATS, 2013).
The deposit covers about 26,000 reagents; shown is a random part of them. In the full data, 167 (0.63%) are marked active. 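Calls are per gene from RSA p-values that are not deposited; an individual active-marked siRNA can sensitise only weakly.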 A number with no mark means an inactive call. Reagents against one gene are numbered here. Not all columns of the deposit are shown.

- Screen: 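Partners whose loss is lethal together with topoisomerase I blockade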 (primary screen)
- Cells: MDA-MB-231 cells, a human breast cancer line
- Reagents: single siRNA against human genes, 20 nM siRNA (0.8 pmol per well)
- Time to read-out: 120 h (drug added 48 h after transfection, read 72 h later)
- Treatment: camptothecin 20 nM (about EC30) for 72 h; vehicle 0.1% DMSO in parallel plates
- Measurement: 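CellTiter-Glo ATP signal, scaled to control siRNA as percent viability; sensitisation given as log2 of untreated divided by camptothecin-treated viability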
- Reading the numbers: log2 vehicle/camptothecin viability: higher = stronger sensitisation to camptothecin
- Active means: 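Active genes have an RSA gene-level p-value below 0.001, computed from the ratios of their separate siRNAs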

With KDM1B #1, how do the results read?
log2 vehicle/camptothecin viability: -0.164

For KDM1B #2, what does the deposit list?
log2 vehicle/camptothecin viability: -0.108

For KDM1B #3, how do the results read?
log2 vehicle/camptothecin viability: -0.0852

For KDM1B #4, what was measured?
log2 vehicle/camptothecin viability: -0.187

For DUSP10 #1, what does the deposit list?
log2 vehicle/camptothecin viability: -0.103

What is on record for DUSP10 #2?
log2 vehicle/camptothecin viability: -0.334

With DUSP10 #3, what does the deposit list?
log2 vehicle/camptothecin viability: -0.409

What is on record for DUSP10 #4?
log2 vehicle/camptothecin viability: -0.0286

For TP53BP2 #1, what was measured?
log2 vehicle/camptothecin viability: 0.369

How did the screen score TP53BP2 #2?
log2 vehicle/camptothecin viability: -0.387

What did the screen give for TP53BP2 #3?
log2 vehicle/camptothecin viability: -0.406

For TP53BP2 #4, what was measured?
log2 vehicle/camptothecin viability: -0.202

With MYCBP2 #1, what does the deposit list?
log2 vehicle/camptothecin viability: -0.519

With MYCBP2 #2, how do the results read?
log2 vehicle/camptothecin viability: 0.104

Which result is listed for MYCBP2 #3?
log2 vehicle/camptothecin viability: 0.234

How did the screen score MYCBP2 #4?
log2 vehicle/camptothecin viability: -0.262

With RGS16 #1, how do the results read?
log2 vehicle/camptothecin viability: -0.168

What is on record for RGS16 #2?
log2 vehicle/camptothecin viability: 0.0394

What is on record for RGS16 #3?
log2 vehicle/camptothecin viability: 0.0196

For RGS16 #4, how do the results read?
log2 vehicle/camptothecin viability: -0.0932

For RFPL1 #1, how do the results read?
log2 vehicle/camptothecin viability: -0.0182

What is on record for RFPL1 #2?
log2 vehicle/camptothecin viability: -0.098

Which result is listed for RFPL1 #3?
log2 vehicle/camptothecin viability: -0.266

How did the screen score RFPL1 #4?
log2 vehicle/camptothecin viability: 1.89

With RFPL1 #5, what does the deposit list?
log2 vehicle/camptothecin viability: 0.272

2 entries from above, arranged by “log2 vehicle/camptothecin viability”, descending.
DUSP10 #1: log2 vehicle/camptothecin viability = -0.103
DUSP10 #2: log2 vehicle/camptothecin viability = -0.334
